A short description of the assay: qHTS Assay for Modulators of Lamin A Splicing. The following applies: HeLa LMNA splicing GFP/RFP minigene ratio, 48 h. A digest of the protocol: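 S3 HeLa cells stably expressing lamin A-EGFP splicing minigene plus DsRed2, 600 cells/well, 48 h compound exposure at 37C. Laser-scanning cytometry; analysed as GFP (500-530 nm)/RFP (575-640 nm) total intensity ratio; 0.5% DMSO vehicle.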
In general terms: In qHTS, concentration-response curves come from the screen itself.

Where [1] appears, read: measured here: GFP splicing reporter channel.
Setting [2] is: measured here: RFP viability control channel.

This is one part of the list. The main result of the screen is listed elsewhere. These columns were measured beside it and carry no call. Compounds called inactive in the main read-out are mostly missing here. Words in brackets tell the shape of the fitted curve; partial curves, single points and poor fits give uncertain potencies.

As a reminder, the AC50 is the concentration at which the activity in the assay is half-maximal.

As for `Cc1c(NC(=O)c2coc(=O)c(Br)c2)c(=O)n(-c2ccccc2)n1C`, the AC50 was 35.5 µM [falling, single point] under setting [1] and 35.5 µM [falling, single point] under setting [2].

With `Cc1ccccc1C(CC(=O)c1cccs1)C(C#N)C#N` (stereo not drawn), the concentration at half-maximal activity (AC50) under setting [1] was 12.6 µM [falling, partial curve] and the AC50 under setting [2] was 25.1 µM [falling, single point].

As to `CO/N=C\CC(=O)Nc1ccc(Oc2ccccc2)cc1`, the AC50 is 3.55 µM [falling, single point] under setting [1] and 5.62 µM [falling, single point] under setting [2].

Consider `CSc1nc(C)cc(SCC(=O)Nc2ccccc2)n1`, for which the AC50 under setting [2] was 35.5 µM [rising, single point].

In the case of `CC(Oc1ccc(F)cc1)C(=O)N1CCC(c2nc3ccccc3s2)CC1` (stereo not drawn), the AC50 was 1 µM [falling, partial curve, poor fit] under setting [1] and 0.00447 µM [falling, full curve, poor fit] under setting [2].

Regarding `CCn1c(-c2ccc(C)cc2)nn(CC(=O)NCCc2ccccc2)c1=S`, the AC50 under setting [1] is 1.41 µM [rising, partial curve, poor fit] and the AC50 under setting [2] is 6.31 µM [rising, full curve].

For `C/C=C/Cn1c(SCc2ccc(C)cc2)nc2c1c(=O)[nH]c(=O)n2C`, the AC50 reads like this: under setting [1], 20 µM [rising, single point]; under setting [2], 31.6 µM [rising, single point].

For `COc1ccccc1OCc1ccc(C(=O)NC(C)(C)C)o1`, the half-maximal activity concentration (AC50) is, setting by setting: under setting [1], 31.6 µM [rising, single point]; under setting [2], 31.6 µM [rising, single point].

`Cn1ncc2c(N3CCN(c4cccc(Cl)c4)CC3)ncnc21`: under setting [1], the AC50 is 0.02 µM [falling, full curve, poor fit].

As for `CCCOc1cc(N)ccc1C(=O)OCCN(CC)CC`, the AC50 under setting [1] was 0.000316 µM [falling, full curve, poor fit].

Take `O=S(=O)(NC1CC1)c1ccc(S(=O)(=O)N2CCc3ccccc32)cc1`: the AC50 reads like this: under setting [1], 11.2 µM [rising, partial curve]; under setting [2], 12.6 µM [rising, partial curve].

In the case of `Cc1cc(C)nc(NCC(O)CNc2ccccc2C)n1` (stereo not drawn), under setting [2], the concentration at half-maximal activity (AC50) was 35.5 µM [rising, single point].

Consider `CCOC(=O)CC(c1ccc([N+](=O)[O-])cc1)n1c(C)ccc1C` (stereo not drawn), for which the AC50 under setting [1] is 0.0224 µM [falling, full curve, poor fit] and the half-maximal activity concentration (AC50) under setting [2] is 0.0282 µM [falling, full curve, poor fit].

For the compound `COc1ccc(NC(=O)/C(Cl)=C(/Cl)S(=O)(=O)Cc2ccccc2)cn1`, the AC50 was 4.47 µM [falling, full curve] under setting [1] and 8.91 µM [falling, partial curve, poor fit] under setting [2].

Regarding `N#CC1=C(N)C2=CCCC[C@H]2[C@H](c2cccc(F)c2)C1(C#N)C#N`, under setting [2], the AC50 was 15.8 µM [rising, single point].

Take `CCN(CC)S(=O)(=O)c1ccc(-c2nnc(SCC(=O)N3CCOCC3)o2)cc1`: the AC50 is 14.1 µM [rising, partial curve, poor fit] under setting [1] and 10 µM [rising, partial curve] under setting [2].

`Cc1cc2nc(-c3ccc(SCC(=O)N4CCN(C(=O)c5ccco5)CC4)nc3)[nH]c2cc1C`: the AC50 under setting [2] was 22.4 µM [rising, single point].

Consider `CCCCN(C)CCNC(=O)c1c2c(nc3ccccc13)C(=O)N(C1CCCCC1)C2`, for which, under setting [1], the AC50 was 11.2 µM [falling, partial curve, poor fit].

`COc1ccc(C2CC(c3cccs3)=NN2c2ccc(C=O)cc2)cc1` (stereo not drawn): the AC50 is, setting by setting: under setting [1], 11.2 µM [rising, single point]; under setting [2], 12.6 µM [rising, single point].

In the case of `Cc1c(C(=O)NCC(c2ccc(Cl)cc2)N2CCOCC2)oc2ccccc12` (stereo not drawn), the AC50 runs as follows: under setting [1], 0.158 µM [falling, partial curve]; under setting [2], 0.0562 µM [falling, full curve].

For the compound `Cc1cccc(C)c1NC(=O)N1C2CCC1CC(O)(c1cccnc1)C2` (stereo not drawn), the AC50 under setting [1] is 35.5 µM [falling, single point].

As for `CC(C)(C)OC(=O)N1CCC(c2c(C(=O)NCCN3CCc4ccccc4C3)cnn2-c2ccc(F)cc2F)CC1`, the AC50 under setting [1] was 31.6 µM [falling, partial curve].

As for `COc1cc(C)ccc1OCCOCCOc1ccc([N+](=O)[O-])cc1`, the AC50 under setting [1] is 11.2 µM [rising, partial curve] and the AC50 under setting [2] is 14.1 µM [rising, partial curve].

Regarding `Cc1noc(C)c1COC(=O)Cc1ccc(Cl)cc1`, the concentration at half-maximal activity (AC50) under setting [1] is 11.2 µM [rising, partial curve].

`CCC(=O)N1CCc2cc(Br)cc(S(=O)(=O)CCC(=O)NCCc3cccc(C)c3)c21`: under setting [1], the AC50 is 6.31 µM [rising, single point].

Consider `Cc1cccc(OCC(=O)NNC(=O)C2CCCCC2C(=O)O)c1` (stereo not drawn), for which the AC50 under setting [1] is 0.794 µM [falling, full curve, poor fit] and the half-maximal activity concentration (AC50) under setting [2] is 0.0398 µM [falling, full curve, poor fit].

As for `CN1CCCN(S(=O)(=O)c2ccc(Cl)c(Cl)c2)CC1`, the AC50 under setting [1] was 0.316 µM [falling, full curve, poor fit].

Consider `Nc1nc(/C=C/c2ccc(F)cc2)nc(-c2ccccc2O)n1`, for which the AC50 reads like this: under setting [1], 2.51 µM [rising, partial curve]; under setting [2], 1.26 µM [rising, full curve].

In the case of `C/C(=N\Nc1ccc(S(=O)(=O)Nc2ccc(Cl)cc2)cc1[N+](=O)[O-])c1ccc(N2CCOCC2)cc1`, the half-maximal activity concentration (AC50) was 4.47 µM [rising, single point] under setting [1] and 6.31 µM [rising, single point] under setting [2].

Consider `C=CCN1C(=O)S/C(=C/c2ccc(Sc3nc4ccccc4[nH]3)o2)C1=O`, for which, under setting [2], the AC50 is 3.16 µM [rising, full curve].

On to `COC(=O)CC1=NN(c2nc(C)cc(C)n2)C(=O)C1`, for which the half-maximal activity concentration (AC50) under setting [2] was 7.08 µM [falling, partial curve, poor fit].

For the compound `Cc1cc(NC(=O)CO/N=C/c2ccc3c(c2)OCO3)ccc1Br`, the AC50 under setting [1] is 0.447 µM [rising, full curve, poor fit].

On to `CCOC(=O)N1CCN(c2c(NCCCN(CC)Cc3ccccc3)c(=O)c2=O)CC1`, for which, under setting [2], the AC50 is 0.0891 µM [rising, partial curve, poor fit].

In the case of `Cc1cc(=O)[nH]c(SCC(=O)N(CCC#N)c2ccccc2)c1C#N`, under setting [1], the AC50 was 0.0224 µM [falling, full curve, poor fit].

In the case of `Cc1ccc(CNc2cnn(C34CC5CC(CC(C5)C3)C4)c(=O)c2Cl)cc1`, the AC50 under setting [2] was 1.26 µM [rising, partial curve].

For `O=C(c1ccc2c(c1)N(Cc1cccc(F)c1)C(=O)c1ccccc1S2)N1CCOCC1`, the half-maximal activity concentration (AC50) under setting [2] was 0.0251 µM [falling, full curve, poor fit].

As to `CCN(c1ccccc1)S(=O)(=O)c1ccc(OC)c(NC(=O)CNCC(C)O)c1` (stereo not drawn), the AC50 under setting [1] was 0.501 µM [falling, full curve, poor fit].

`CC1=NNC(=O)/C1=C\c1cn(-c2ccccc2)nc1-c1ccc(F)cc1`: the AC50 is, setting by setting: under setting [1], 5.62 µM [falling, full curve]; under setting [2], 7.08 µM [falling, full curve].

Consider `CN(C)c1ccc(C(=O)c2ccc(N(C)C)c3ccccc23)cc1`, for which the AC50 under setting [2] is 0.1 µM [rising, full curve, poor fit].

Take `O=C(Cc1ccccc1)NCC1OCCc2ccccc21` (stereo not drawn): under setting [1], the AC50 was 0.891 µM [falling, full curve, poor fit].

For `CCN(CC)S(=O)(=O)N1CCC(C(=O)NC2CCCc3ccccc32)CC1` (stereo not drawn), the AC50 under setting [2] is 35.5 µM [rising, single point].

For the compound `CCCCc1ccc(NC(=S)Nc2ccc(Nc3ccc(OC)cc3)cc2)cc1`, under setting [2], the concentration at half-maximal activity (AC50) was 15.8 µM [rising, single point].

Consider `Cc1ccccc1CN1C(=O)c2ccccc2S(=O)c2ccc(C(=O)NC3CCC(C)CC3)cc21` (stereo not drawn), for which the half-maximal activity concentration (AC50) is 0.00891 µM [falling, full curve, poor fit] under setting [1] and 0.01 µM [falling, full curve, poor fit] under setting [2].

Consider `N#C/C(=C/c1ccc(-c2ccc(S(N)(=O)=O)cc2)o1)c1nc2ccccc2s1`, for which the concentration at half-maximal activity (AC50) reads like this: under setting [1], 11.2 µM [falling, partial curve]; under setting [2], 14.1 µM [falling, partial curve].

Turning to `Cc1ccc(Nc2nc(N)c([N+](=O)[O-])c(N3CCCC(C)C3)n2)cc1C` (stereo not drawn), the AC50 is, setting by setting: under setting [1], 35.5 µM [falling, single point]; under setting [2], 35.5 µM [falling, single point].

On to `Cc1ccc(-c2nc(CSc3nc4ccccc4c(=O)n3C)cs2)cc1`, for which the AC50 runs as follows: under setting [1], 3.55 µM [rising, single point]; under setting [2], 10 µM [rising, single point].

As for `N#C/C(=C\C=C\c1ccccc1)C(=O)Nc1ccccc1`, the AC50 is 6.31 µM [rising, partial curve, poor fit] under setting [1] and 11.2 µM [rising, partial curve] under setting [2].

Turning to `CC(C)c1nnc(SCC(=O)N2CCN(C(=O)c3ccco3)CC2)n1N`, under setting [1], the AC50 is 0.00447 µM [falling, full curve, poor fit].

For `O=[N+]([O-])c1cccc(N/N=C/c2cccc3ccccc23)c1`, the concentration at half-maximal activity (AC50) under setting [2] was 35.5 µM [rising, single point].

As for `CC(=O)Nc1c([N+](=O)[O-])cc(C)c(Cl)c1[N+](=O)[O-]`, under setting [1], the AC50 is 0.282 µM [falling, partial curve].

With `CC1CCN(S(=O)(=O)c2ccc(Cl)cc2)CC1`, the AC50 by setting is: under setting [1], 22.4 µM [rising, single point]; under setting [2], 35.5 µM [rising, single point].

On to `C1=C(c2ccc(-c3ccccc3)cc2)Nc2ncnn2C1c1ccco1` (stereo not drawn), for which the AC50 under setting [1] was 35.5 µM [falling, single point] and the AC50 under setting [2] was 35.5 µM [falling, single point].

For `Cc1ccc(C2CCN(C(=O)Nc3ccccc3)C2)cc1` (stereo not drawn), the AC50 under setting [1] is 11.2 µM [rising, partial curve].

(Values after PubChem BioAssay AID1487 (National Center for Advancing Translational Sciences (NCATS), 2009).)
